Data taken from paper PMC7425996.
These are yes or no findings as the source states them, for the method shown. In cells and extracts the contact can be indirect. Here binding means that the protein was enriched with, or labelled near, the bait; the list need not be complete. Sequences can lack the tags named with a protein.

Target: T1, GFP-Nap1 (Dictyostelium Nap1 tagged with GFP) (Dictyostelium discoideum) (UniProt Q869Q3)
T1 sequence: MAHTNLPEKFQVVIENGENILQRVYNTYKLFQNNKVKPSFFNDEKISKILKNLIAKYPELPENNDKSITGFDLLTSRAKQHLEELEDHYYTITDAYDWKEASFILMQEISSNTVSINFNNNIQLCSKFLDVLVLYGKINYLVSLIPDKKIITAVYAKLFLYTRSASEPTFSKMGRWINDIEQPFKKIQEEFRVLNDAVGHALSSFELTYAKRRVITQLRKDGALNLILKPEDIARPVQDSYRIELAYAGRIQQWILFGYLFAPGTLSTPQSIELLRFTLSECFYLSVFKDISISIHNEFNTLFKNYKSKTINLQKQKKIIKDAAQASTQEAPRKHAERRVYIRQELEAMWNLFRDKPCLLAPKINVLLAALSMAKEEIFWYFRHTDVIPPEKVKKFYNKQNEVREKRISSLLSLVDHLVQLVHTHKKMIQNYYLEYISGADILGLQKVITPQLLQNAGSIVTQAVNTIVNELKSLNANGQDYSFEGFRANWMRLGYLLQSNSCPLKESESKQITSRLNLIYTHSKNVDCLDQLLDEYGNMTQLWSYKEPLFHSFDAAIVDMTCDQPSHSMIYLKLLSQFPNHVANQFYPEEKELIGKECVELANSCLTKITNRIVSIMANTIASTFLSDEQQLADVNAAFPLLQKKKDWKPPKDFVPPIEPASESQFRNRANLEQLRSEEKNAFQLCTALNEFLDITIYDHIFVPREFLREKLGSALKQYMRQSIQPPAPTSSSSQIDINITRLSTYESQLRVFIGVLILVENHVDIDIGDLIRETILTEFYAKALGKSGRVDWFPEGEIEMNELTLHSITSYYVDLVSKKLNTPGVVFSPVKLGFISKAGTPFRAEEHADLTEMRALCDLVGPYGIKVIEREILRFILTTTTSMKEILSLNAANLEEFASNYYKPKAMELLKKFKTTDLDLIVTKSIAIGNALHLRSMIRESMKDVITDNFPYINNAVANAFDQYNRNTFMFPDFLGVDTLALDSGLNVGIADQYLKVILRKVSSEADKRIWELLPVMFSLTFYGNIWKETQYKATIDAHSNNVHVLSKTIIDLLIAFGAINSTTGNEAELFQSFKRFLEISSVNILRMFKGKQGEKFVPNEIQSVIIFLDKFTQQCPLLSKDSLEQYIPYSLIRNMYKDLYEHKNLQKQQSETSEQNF
Test: affinity purification with mass spectrometry; EGFP-Nap1 lightly cross-linked to its neighbors with formaldehyde, immunoprecipitation of GFP, mass spectrometric identification of bound proteins

B1: sepA (Ste20-family kinase, MAPKKK homologue) (enzyme, UniProt Q8T2I8 1-1167)
chain: MSKKEPEEIKKNVTVGNYNLGVVIGKGGFGTVYQGLDIEDGDFVAIKQINLTKIPKDQLQGIMNEIDLLKNLNHANIVKYIKYVKTKDNLYIVLEYVENGSLSGIIKKFGKFPETLVCVYIRQVLEGLVYLHEQGVVHRDIKGANILTTKEGKIKLADFGVATKFDDTSAAAVVGTPYWMAPEIIELNGATTKSDIWSVGCTVIELLTGSPPYYDLGQMPALFRIVQDDCPPLPEGISPPLKDWLMQCFQKDPNLRISAQKLLKHKWIQASIKKKPVENGAGGVGNGTDSLGAPANIDDIAKNITDYNERINKKPSHQRKPSIHPKSPKGKVFLPPPEEEEDEWGDDFSNTPKSIKLPDKKSPLKLTNNKPSTPLKQQPTNNTPVQQQQQQQQPPPLKLAVPKQPVIENDDDWGDDFNTVSDLSKAVGSLNFNNNKKNETPKPNIKKPTFSEDEDEDDDDDGFGSGGDDEDDDFGDIPTSIKLNPKFGSNIKGNSSGSANTTNSSSTVVQQPKLTVSNNNNNNNKKLPLSPRQPSSGNVKEGINHGSTGSKSGGVIIDQWGEDGEEDNDWGDVATVNFDPKVIRKGTVNKPDLSTRLKNRIALSETALSNSFNNNGNDDEDEDIFADDFDEDDDEDFDLDKNLMKDNYARMSSEILKLMNLLTPEQPEEVISSACTQLITMFKENSEQKTLLIRRHGVIPIMEMLEVSNIQSHVLCSILKVVNQIIDNNMEIQENLCLVGGIPAIMKFSGPEYPASVRLETASFISKMCSTSTLTLQMFIACKGLPILVDFLLSPYAESKRLVWMAVDAIVNVFELQSPTPKNDFCRLFSKCGLLKTLPIVLRDSIADGEAAATYPDRIINLFIMFSAADSVVRKTMSAVEVIRPILDTLSQLMPEQLAKVLKSIKQLSMDHNTLANLQNAGAIRFMVPFLGRRTGAFVAEIHNHVLNTMFHLCRIDPERQYQAAIDGIIPHLQYFITSHSPLNQFALPIICDLAHSKKARSELWKNNGVAFYLSLLEERYWQVNALDSLAVWITDETHKVENIIATNENIKKLIQLFTNAESQSFAGILEPLLKIIQISIPVNILLGTSNFITKIIDKLGHTNPQVRLNLLKIITSLYECHPNAKKMIQEFKLIPIIQKIADTDKSVLVQKMASKLLEAFNANTVI
binding: binds
